Results are given in words; binding and its absence hold for the method and conditions named. In cells and extracts the contact can be indirect. A yes stands for co-enrichment or nearness to the bait. Other partners may have been found. Tags and fused reporters may be left off the sequences shown.
Target: T1, GDAP1 tagged with an Avi-tag (Avi-HA-tagged GDAP1; ganglioside-induced differentiation-associated protein 1), biotinylated by BirA (UniProt Q8TB36)
T1 sequence (chain, biotin on the AviTag (biotinylated by BirA in the cells)): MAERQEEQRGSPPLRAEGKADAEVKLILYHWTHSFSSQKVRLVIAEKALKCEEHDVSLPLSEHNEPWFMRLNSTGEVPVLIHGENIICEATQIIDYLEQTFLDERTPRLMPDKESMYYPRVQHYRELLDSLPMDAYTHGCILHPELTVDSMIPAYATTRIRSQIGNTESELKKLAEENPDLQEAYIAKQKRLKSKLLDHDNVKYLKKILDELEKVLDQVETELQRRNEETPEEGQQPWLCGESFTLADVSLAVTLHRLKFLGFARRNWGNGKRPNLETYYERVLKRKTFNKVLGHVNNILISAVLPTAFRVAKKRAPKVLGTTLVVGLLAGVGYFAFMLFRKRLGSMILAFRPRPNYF
Test: affinity purification with mass spectrometry; biotinylated Avi-HA-GDAP1 captured on Dynabeads MyOne Streptavidin T1 (45 min, RT) from RIPA lysates of AAV-transduced primary cortical neurons of BirA mice; lysates used directly or incubated with 5 mM GSH or GSSG for 30 min at 37 °C; HA-GDAP1-transduced cultures as control; label-free quantitative LC-MS

By UniProt entry, the sequences of proteins in these tests, tags left out.
UniProt P18760: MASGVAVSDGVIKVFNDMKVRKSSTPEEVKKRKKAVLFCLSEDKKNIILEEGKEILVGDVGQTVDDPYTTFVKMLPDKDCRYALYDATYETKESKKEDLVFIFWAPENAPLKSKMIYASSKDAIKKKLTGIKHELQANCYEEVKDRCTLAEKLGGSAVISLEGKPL

binding: binds
Substance: Cofilin-1 (from UniProt P18760 1-166)
